No constants are given. Whether binding was seen depends on the method and setting. Some entries that bind do so weakly or less than the wild type.
Experiments:
[1] = target: T1, endogenous B7H3 on cancer cell lines (UniProt Q5ZPR3); test: FACS on cancer cell lines
T1 sequence (looked up): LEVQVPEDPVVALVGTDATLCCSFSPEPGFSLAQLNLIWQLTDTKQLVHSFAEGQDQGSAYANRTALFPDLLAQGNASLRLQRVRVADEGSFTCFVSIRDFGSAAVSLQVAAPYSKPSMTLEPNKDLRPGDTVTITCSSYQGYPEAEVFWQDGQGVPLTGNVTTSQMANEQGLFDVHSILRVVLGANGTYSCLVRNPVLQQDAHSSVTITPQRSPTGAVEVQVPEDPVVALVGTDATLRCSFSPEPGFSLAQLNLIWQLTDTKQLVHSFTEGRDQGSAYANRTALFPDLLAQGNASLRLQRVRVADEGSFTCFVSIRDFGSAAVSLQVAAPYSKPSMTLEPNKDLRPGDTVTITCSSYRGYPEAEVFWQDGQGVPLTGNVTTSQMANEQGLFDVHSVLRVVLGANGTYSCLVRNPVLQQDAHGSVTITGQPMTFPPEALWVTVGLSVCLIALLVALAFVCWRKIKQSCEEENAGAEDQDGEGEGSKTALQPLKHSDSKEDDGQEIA

[2] = target: T2, full length human B7H3 expressed on CHOK1 cells (human) (UniProt Q5ZPR3); test: FACS, VH titrated with or without 20 nM Enoblituzumab as competitor
T2 sequence (looked up): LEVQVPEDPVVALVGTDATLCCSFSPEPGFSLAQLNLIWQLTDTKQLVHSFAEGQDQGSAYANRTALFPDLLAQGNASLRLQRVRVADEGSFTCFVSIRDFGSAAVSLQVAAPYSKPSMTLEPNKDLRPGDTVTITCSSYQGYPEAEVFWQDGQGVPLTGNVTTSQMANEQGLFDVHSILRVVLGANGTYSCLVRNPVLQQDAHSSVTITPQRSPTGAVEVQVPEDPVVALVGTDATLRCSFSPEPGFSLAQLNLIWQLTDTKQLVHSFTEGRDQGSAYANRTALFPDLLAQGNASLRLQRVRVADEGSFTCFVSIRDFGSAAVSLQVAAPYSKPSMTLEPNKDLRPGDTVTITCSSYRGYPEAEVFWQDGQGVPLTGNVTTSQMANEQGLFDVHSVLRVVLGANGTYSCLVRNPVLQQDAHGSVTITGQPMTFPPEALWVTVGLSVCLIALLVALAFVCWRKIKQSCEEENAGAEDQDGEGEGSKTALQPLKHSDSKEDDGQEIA

Binder | binding [1] | binding [2]
BH-07 anti-B7H3 scFv (scFv, not shown: small tags and cut ends) scFv: EVQLVESGGGVVQPGRSLRLSCAASGFTFSRYAMHWVRQAPGKGLEWVAVISYDGNNKYYGDSVKGRFTISRDNSKNTLYLQMNSLRTEDTAVYYCARTERWLGGDFDYWGQGTLVTVSSGGGGSGGGGSGGGGSSSELTQPPSASGTPGQRVTISCSGSTSNVGRYSVSWYQQVPGTAPKLLIYRSDQRPSGVPDRFSGSKSGTSASLAISGLRSEDEADYYCAAWDDSLREVFGGGTKLTVL | binds | –
BH-02 anti-B7H3 VH antibody (VHH, not shown: small tags and cut ends) VHH: EVQLVESGGGVVQPGRSLRLSCAASGFTFSSYAMHWVRQAPGKGLKWVAVISYDGSNKYYADSVKGRFTISRDNSKNTLYLQMNGLRAEDTAVYYCARDLAAMVTRDDYWGQGTLVTVSS | – | binds

Source: patent EP4705353A2 (dated 2026)
